This note sets out measurements from patent publication US7312323B2, “Enzymes and polynucleotides encoding the same” (The Horticulture and Food Research Institute of New Zealand …, priority 2002, dated 2007).

The series relates to A. deliciosa flowers. Put plainly: Volatiles and pentane extracts of kiwifruit flowers, GC-FID/MS. On the set-up: species or system Actinidia deliciosa. To be noted: for content in pentane extracts of flowers: flowers harvested 2000, pentane extract.

`C=C[C@]1(C)CC[C@@H](C(C)(C)O)C[C@H]1C(=C)C` [Elemol]: the “content in pentane extracts of flowers” value was found to be 3353 ng/g.

On to `C=C1C=CC(C(C)C)CCC(C)=CCC1` (stereo not shown) [Germacrene D, 7-iso-propyl-10-methyl-4-methylene-cyclodeca-5,10-diene], for which the “content in pentane extracts of flowers” value is 592 ng/g. Under “A. deliciosa 'Hayward' flowers, headspace on Chromosorb 105”, the “average concentration in headspace of flowers” value is listed as 0.68 ng/g of petal tissue.

Take `C=C/C(C)=C/C/C=C(\C)CCC=C(C)C` [alpha-farnesene]: the “content in pentane extracts of flowers” value was found to be 23669 ng/g.
